Test results: PubChem BioAssay AID602313 (National Center for Advancing Translational Sciences (NCATS), 2012)
Out of some 390,000 compounds screened, about 760 (0.19%) were called active. The shares of active, inactive and inconclusive entries below differ from those in the screen. Calls come from the whole dose curve; as a rule, active = well fitted inhibition curve with a large enough effect; inconclusive = small, poorly fitted or top-dose-only effect; inactive = flat fitted curve, though single readings scatter. Potencies beside an inconclusive call are fits to weak or partial responses and may not hold up.

Test: qHTS for Inhibitors of Vif-A3F Interactions: qHTS; note: nearly all actives have a fitted effect of over 65% in size; for activity, negative = active: % of control where 0% means no effect
Conditions: HeLa A3F-eYFP + Vif (tagged APOBEC3F with the HIV-1 protein that degrades it), YFP fluorescence increase; series mostly up to 46.1 µM; activity, negative = active: at the top concentration
Outline: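 HeLa cells stably expressing Vif plus C-terminally eYFP-tagged A3F were seeded, incubated overnight at 37 deg C, dosed with compound, incubated overnight again at 37 deg C. Yellow fluorescence (Ex 488/Em 500-530) reported blocked Vif-mediated A3F-eYFP degradation.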
Potency is the fitted concentration of half-maximal effect.

| SMILES | Potency | activity, negative = active |
| --- | --- | --- |
| CCCCNC(=S)Nc1ccc(Oc2ccccc2)cc1 | inconclusive: 11.2 µM [inhibitor, partial curve, poor fit] |  |
| COc1ccc(S(=O)(=O)Nc2ccc(S(=O)(=O)Nc3nccs3)cc2)cc1 |  | inactive: 0.712% |
| CN1CC=C2C(C#N)=C(N)C(C#N)(C#N)C(c3cccc(Cl)c3Cl)C2C1 (configuration not stated) | inconclusive: 22.4 µM [inhibitor, single point] |  |
| CCN(CC)S(=O)(=O)c1ccc(N=Cc2c(C)c(C#N)c(=O)n(C)c2O)cc1 | inconclusive: 25.1 µM [inhibitor, single point] |  |
| C/C(CC(=O)NCc1ccco1)=N\NC(=O)Cc1ccc(-c2ccccc2)cc1 | inconclusive: 35.5 µM [inhibitor, single point] |  |
| CCCCCCSc1ccc(-c2nc3ccc(C)cn3c2NC2CCCCC2)cc1 | inconclusive: 25.1 µM [inhibitor, single point] |  |
| COCCNc1c(-c2cc3ccc(C)c(C)c3[nH]c2=O)nc2ccccn12 | inconclusive: 6.31 µM [inhibitor, single point] |  |
| Cc1ccc2nc(SCC(=O)Nc3ccc4sc(C)nc4c3)c(C#N)cc2c1 | active: 11.2 µM |  |
| CCCN1CCc2c(sc(NC(=O)c3ccc(S(=O)(=O)N(C)c4ccccc4)cc3)c2C(N)=O)C1 | active: 6.31 µM |  |
| O=C(CCN1C(=O)/C(=C\c2cccs2)SC1=S)Nc1ccccn1 | inconclusive: 35.5 µM [inhibitor, single point] |  |
| COc1ccc(-c2nc3cc(C)ccn3c2NC2CCCCC2)cc1SC1CCCCC1 | inconclusive: 10 µM [inhibitor, partial curve, poor fit] |  |
| CCOC(=O)c1ccc(NC(=O)CCS(=O)(=O)c2cccc3nonc23)cc1 | inconclusive: 35.5 µM [inhibitor, single point] |  |
| COc1ccc(C2C=C(c3ccc(Cl)cc3)Nc3nc(-c4ccc(Cl)cc4)nn32)cc1 (configuration not stated) | inconclusive: 31.6 µM [inhibitor, single point] |  |
| O=C(NCc1ccc(F)cc1)C1CCN(S(=O)(=O)c2cccc3nonc23)CC1 | inconclusive: 20 µM [inhibitor, single point] |  |
| O=C(CCCC(=O)OCC(F)(F)C(F)F)Nc1ccccc1F | inconclusive: 0.562 µM [inhibitor, full curve, poor fit] |  |
| CC12CCC(C(=O)Nc3nc4ccccc4s3)(OC1=O)C2(C)C (configuration not stated) | inconclusive: 11.2 µM [inhibitor, partial curve, poor fit] |  |
| COc1ccc(NC(=O)CCc2nnc3ccc(NCc4ccco4)nn23)cc1OC | inconclusive: 3.98 µM [inhibitor, single point] |  |
| O=C(COC(=O)c1c2c(nc3ccccc13)/C(=C\c1ccco1)CC2)NC1CCCC1 | inconclusive: 25.1 µM [inhibitor, single point] |  |
| O=C1Nc2ccccc2S/C1=C/c1cccs1 | inconclusive: 35.5 µM [inhibitor, single point] |  |
| COc1ccc(C(=O)CC2(O)C(=O)N(Cc3cccc(C(F)(F)F)c3)c3ccccc32)cc1 (configuration not stated) | inconclusive: 28.2 µM [inhibitor, single point] |  |
| CCCCOC(=O)Cn1c2ccc(OC)cc2c2nc3ccccc3nc21 | inconclusive: 25.1 µM [inhibitor, single point] |  |

| SMILES | Potency | activity, negative = active |
| --- | --- | --- |
| CN(C)S(=O)(=O)Nc1cc(Cl)cc(Cl)c1 |  | inactive: -8.64% |
| Oc1cccc2ccc(/C=C/c3ccccc3Br)nc12 | inconclusive: 4.47 µM [inhibitor, partial curve] |  |
| COc1ccc(-n2c(SCC(=O)Nc3ccc(C(N)=O)cc3)nc3ccccc3c2=O)cc1OC | inconclusive: 35.5 µM [inhibitor, single point] |  |
| CC(C)CC1=NN2C(=N)/C(=C\c3coc4ccccc4c3=O)C(=O)N=C2S1 | inconclusive: 35.5 µM [inhibitor, single point] |  |
| COc1ccc(Nc2nc3c(C)cccc3cc2C#N)cc1 | inconclusive: 31.6 µM [inhibitor, single point] |  |
| Cc1ccccc1NC(=O)Cn1c(=O)n(CCc2ccccc2)c(=O)c2ccccc21 | inconclusive: 25.1 µM [inhibitor, single point] |  |
| CCCNCc1cc(OC)c(OCc2ccccc2)cc1Br | inconclusive: 31.6 µM [inhibitor, single point] |  |
| COc1cc(/C=C(\C#N)c2ccccn2)cc(OC)c1O | inconclusive: 15.8 µM [inhibitor, partial curve, poor fit] |  |
| C/C(=N\Nc1ncc(Cl)cc1Cl)c1ccc(N2CCOCC2)cc1 | inconclusive: 35.5 µM [inhibitor, single point] |  |
| Cc1cc(Br)cnc1NC(=S)Nc1ccc(F)cc1F | inconclusive: 17.8 µM [inhibitor, single point] |  |
| CCOC(=O)c1ccc(S(=O)(=O)NCCN2CCOCC2)cc1 | inconclusive: 3.55 µM [inhibitor, single point] |  |
| COc1cc(C2=NOC(C(=O)Nc3cc(C)on3)C2)cc(OC)c1OC (configuration not stated) |  | inactive: 1.68% |
| CCCN1CCN(C(=O)Nc2ccc(C(=O)OCC)cc2)CC1 | inconclusive: 3.16 µM [inhibitor, single point] |  |
| COc1ccccc1C(=O)N1CCN(Cc2cccnc2)CC1 |  | inactive: 0.0697% |
| O=[N+]([O-])c1ccc(/C=N\NS(=O)(=O)c2ccc(F)cc2)o1 | inconclusive: 35.5 µM [inhibitor, single point] |  |
| O=C(N/N=C/c1ccncc1)c1ccccn1 |  | inactive: 3.78% |
| O=C(Cn1c(=O)c(CNc2ccccc2)cc2cc3c(cc21)OCCO3)Nc1ccccc1Cl | inconclusive: 22.4 µM [inhibitor, single point] |  |
| CN(CC(=O)Nc1ccccc1C(F)(F)F)C(=O)Cc1ccccc1F | inconclusive: 4.47 µM [inhibitor, full curve, poor fit] |  |
| COc1cc(SC)ccc1C(=O)OC(C)C(=O)Nc1ccc(NC(C)=O)cc1 (configuration not stated) | inconclusive: 20 µM [inhibitor, single point] |  |
| COC(=O)Cc1cc(=O)n(-c2ccccc2)[nH]1 |  | inactive: -4.93% |
| CCNC(=O)NNC(=O)C1CC(c2cccs2)=NO1 (configuration not stated) | inconclusive: 2.82 µM [inhibitor, single point] |  |

12 of the compounds above, bar-delimited.
SMILES | Potency | activity, negative = active
CCCCCCSc1ccc(-c2nc3ccc(C)cn3c2NC2CCCCC2)cc1 | inconclusive: 25.1 µM [inhibitor, single point] | 
COCCNc1c(-c2cc3ccc(C)c(C)c3[nH]c2=O)nc2ccccn12 | inconclusive: 6.31 µM [inhibitor, single point] | 
Cc1ccc2nc(SCC(=O)Nc3ccc4sc(C)nc4c3)c(C#N)cc2c1 | active: 11.2 µM | 
CCCN1CCc2c(sc(NC(=O)c3ccc(S(=O)(=O)N(C)c4ccccc4)cc3)c2C(N)=O)C1 | active: 6.31 µM | 
O=C(CCN1C(=O)/C(=C\c2cccs2)SC1=S)Nc1ccccn1 | inconclusive: 35.5 µM [inhibitor, single point] | 
COc1ccc(-c2nc3cc(C)ccn3c2NC2CCCCC2)cc1SC1CCCCC1 | inconclusive: 10 µM [inhibitor, partial curve, poor fit] | 
CCOC(=O)c1ccc(NC(=O)CCS(=O)(=O)c2cccc3nonc23)cc1 | inconclusive: 35.5 µM [inhibitor, single point] | 
COc1ccc(C2C=C(c3ccc(Cl)cc3)Nc3nc(-c4ccc(Cl)cc4)nn32)cc1 (configuration not stated) | inconclusive: 31.6 µM [inhibitor, single point] | 
O=C(NCc1ccc(F)cc1)C1CCN(S(=O)(=O)c2cccc3nonc23)CC1 | inconclusive: 20 µM [inhibitor, single point] | 
O=C(CCCC(=O)OCC(F)(F)C(F)F)Nc1ccccc1F | inconclusive: 0.562 µM [inhibitor, full curve, poor fit] | 
CC12CCC(C(=O)Nc3nc4ccccc4s3)(OC1=O)C2(C)C (configuration not stated) | inconclusive: 11.2 µM [inhibitor, partial curve, poor fit] | 
COc1ccc(NC(=O)CCc2nnc3ccc(NCc4ccco4)nn23)cc1OC | inconclusive: 3.98 µM [inhibitor, single point] | 
